# Test results taken from patent US20050288373A1, “Methods of treating various conditions by administration of sustained release L-arginine” (priority 2002, published 2005).
# For at least one compound, name, drawing or mass did not settle the structure.
# Test system: endothelium-dependent vasodilation
# Assay: Endothelium-dependent vasodilation by brachial artery ultrasound in subjects with elevated ADMA
# Assay type: in vivo, human
# Settings: subjects with elevated ADMA levels
compound,measurement,value
"CCC(C)(C)C(=O)O[C@H]1C[C@@H](C)C=C2C=C[C@H](C)[C@H](CC[C@@H]3C[C@@H](O)CC(=O)O3)[C@H]21 [Simvastatin, simvastatin]",effect on endothelial function,does not enhance
